Assay results published in patent US20230348578A1, “CONFORMATION-SPECIFIC ANTIBODIES THAT BIND TAU PROTEIN AND USES THEREOF” (Beth Israel Deaconess Medical Center, Inc., priority 2020, published 2023).
Positions count from the first letter of the chain named. No constants are given. Whether binding was seen depends on the method and setting. Some results given as binding are weak or reduced against the parent protein; the word gives no strength. Values belong to the binder of their own block, whether it stands above or below them.

Sequences of proteins named here, by UniProt entry; tags and fusion partners are left off. A change or cut given only in a name is not applied to a line headed by its entry. A line that says so, or that is headed by a name, gives the form on record, which may keep a tag or linker.
cis P-tau, mouse (P10637, form named): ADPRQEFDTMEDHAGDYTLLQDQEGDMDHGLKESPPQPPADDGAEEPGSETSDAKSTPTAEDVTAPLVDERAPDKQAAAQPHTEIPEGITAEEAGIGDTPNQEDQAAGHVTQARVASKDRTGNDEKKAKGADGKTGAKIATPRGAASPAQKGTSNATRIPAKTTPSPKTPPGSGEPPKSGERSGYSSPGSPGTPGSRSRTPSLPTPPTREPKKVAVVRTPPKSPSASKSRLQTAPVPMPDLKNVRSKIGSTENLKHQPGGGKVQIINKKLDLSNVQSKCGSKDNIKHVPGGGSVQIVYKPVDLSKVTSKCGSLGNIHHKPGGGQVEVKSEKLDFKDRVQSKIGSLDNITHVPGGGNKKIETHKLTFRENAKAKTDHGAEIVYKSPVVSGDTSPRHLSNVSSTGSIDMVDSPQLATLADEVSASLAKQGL

Target: cis P-tau, mouse (mouse) (UniProt P10637)
Experiment: immunoblot of whole brain lysates of tau +/+, tau -/- and hTau transgenic mice, probed with the antibody

binding: binds
B1: Cis-mAb HT2 (humanized) (antibody, V domains shown)
VH: QVQLVQSGAEVKKPGASVKMSCKASGYTFTSYWIHWVKQRPGQGLEWIGVIDPSDSYTRYNQKFKGRATLTVDTSASTAYMELSSLRSEDTAVYYCTTWEVDYWGQGTLVTVSS
VL: DVVMTQSPLSLPVTLGQPASISCRSSQSLVHSDGNTYLHWYLQKPGQSPQLLIYKVSNRFSGVPDRFSGSGSGTDFTLKISRVEAEDVGVYFCSQSTHVPWTFGGGTKVEIK

binding: binds
B2: Cis-mAb HT10 (humanized) (antibody, V domains shown)
VH: B1 VH
VL: B1 VL with F92Y

binding: binds
B3: Cis-mAb HT13 (mouse-human chimera, control) (antibody, V domains shown)
VH: QVQLQQPGAELVKPGASVKMSCKASGYTFTSYWIHWVKQRPGQGLEWIGVIDPSDSYTRYNQKFKGKATLTVDTSSSTAYMQLSSLTSEDSAVYYCTTWEVDYWGQGTTLTVSS
VL: B1 VL with S7T, T14S, Q17D, P18Q, Q50K, V83L, V88L, V109L
